Values of other authors as cited in patent publication US10259815B2, “Gabaergic ligands and their uses” (UWM Research Foundation, Inc., priority 2015, dated 2019).

Protein sequences, listed by entry. Tags and fused reporters are not part of them. Residues count along the entry.
UniProt P18507, 40-475: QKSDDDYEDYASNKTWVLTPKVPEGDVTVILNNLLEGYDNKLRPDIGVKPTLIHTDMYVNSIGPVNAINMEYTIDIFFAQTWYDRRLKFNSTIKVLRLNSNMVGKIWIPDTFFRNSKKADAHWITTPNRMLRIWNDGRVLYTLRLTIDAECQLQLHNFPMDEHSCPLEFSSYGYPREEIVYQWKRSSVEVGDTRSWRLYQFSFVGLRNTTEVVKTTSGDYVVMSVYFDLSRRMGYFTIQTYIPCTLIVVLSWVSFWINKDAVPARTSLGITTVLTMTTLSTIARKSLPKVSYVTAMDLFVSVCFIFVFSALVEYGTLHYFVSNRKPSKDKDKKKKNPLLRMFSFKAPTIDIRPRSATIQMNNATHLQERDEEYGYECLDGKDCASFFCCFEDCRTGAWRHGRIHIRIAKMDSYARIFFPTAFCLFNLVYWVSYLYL
UniProt P31644, 32-462: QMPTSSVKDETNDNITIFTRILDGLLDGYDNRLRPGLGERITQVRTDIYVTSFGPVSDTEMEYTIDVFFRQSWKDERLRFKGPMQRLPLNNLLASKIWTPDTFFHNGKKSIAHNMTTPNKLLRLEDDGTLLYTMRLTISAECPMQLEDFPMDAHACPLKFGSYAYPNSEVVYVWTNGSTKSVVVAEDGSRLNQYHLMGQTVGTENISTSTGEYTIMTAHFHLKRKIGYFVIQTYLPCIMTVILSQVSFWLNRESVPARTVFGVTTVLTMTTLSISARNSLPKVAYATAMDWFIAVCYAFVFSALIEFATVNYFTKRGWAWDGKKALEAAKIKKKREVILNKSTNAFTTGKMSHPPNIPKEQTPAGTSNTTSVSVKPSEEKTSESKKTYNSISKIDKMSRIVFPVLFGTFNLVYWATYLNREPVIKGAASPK

Target: GABAA/α5 receptors (Homo sapiens, UniProt P18507+P31644)
Conditions: read-out: Ki, GABAA/α5 receptors; as disclosed in Huang, et al., J. Med. Chem. 2000; cited from earlier work

## CN1C(=O)CN=C(c2ccccc2)c2cc(Cl)ccc21 [diazepam]
  Ki: < 0.025 µM
